For at least one entry, the source does not settle the construct or the ends of the probe.
Test system: M.HpaII DNA cytosine-5 methyltransferase
Experiment: activity assay
Conditions: hmC at target C of CCGG; hmC to C; heat-inactivated control used; purified recombinant protein; label: 33P internal; variant of duplex VII:VIII C (nonspecific-C)

With “TGACCCACGCTCGCC / ACATAATTTATCTCCGGGCGAGCGTGGGTCA [duplex VII:VIII hmC]” the “activity on this sequence” value was “active”.

— patent publication US20150093752
